Measured values taken from patent US20230338574A1, “ANTIBODY-NANOPARTICLE COMPLEXES AND METHODS FOR MAKING AND USING THE SAME” (priority 2020, published 2023).
These are yes or no findings as the source states them, for the method shown. Some results given as binding are weak or reduced against the parent protein; the word gives no strength.

By UniProt entry, the sequences of proteins in these tests, tags left out. Residues count along the entry.
UniProt P02768, residues 25-609: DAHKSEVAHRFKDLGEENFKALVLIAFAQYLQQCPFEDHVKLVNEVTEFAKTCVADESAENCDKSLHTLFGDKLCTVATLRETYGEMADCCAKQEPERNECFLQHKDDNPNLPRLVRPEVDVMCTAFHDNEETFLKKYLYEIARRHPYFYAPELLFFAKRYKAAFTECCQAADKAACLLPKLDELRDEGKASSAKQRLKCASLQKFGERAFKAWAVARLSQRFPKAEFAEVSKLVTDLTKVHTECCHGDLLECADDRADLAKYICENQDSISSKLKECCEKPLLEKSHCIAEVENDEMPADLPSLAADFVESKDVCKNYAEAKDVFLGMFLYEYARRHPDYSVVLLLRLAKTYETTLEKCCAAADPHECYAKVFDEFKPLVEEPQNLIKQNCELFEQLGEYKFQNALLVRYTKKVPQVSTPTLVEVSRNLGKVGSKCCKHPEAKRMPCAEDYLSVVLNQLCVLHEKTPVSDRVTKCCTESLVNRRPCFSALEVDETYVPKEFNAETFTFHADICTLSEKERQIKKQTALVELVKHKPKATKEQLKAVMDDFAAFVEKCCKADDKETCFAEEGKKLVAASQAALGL

Target: ABX Nab (commercial ABRAXANE, albumin-bound paclitaxel nanoparticles) (human) (UniProt P02768)
Assay: zeta potential (Zetasizer), ABX:STI3031 NIC against ABX Nab

binding: binds
B1: anti-PDL1 H6B1L-EM antibody (STI3031) (antibody, human IgG1, lambda, V domains shown)
VH: QMQLVQSGAEVKKPGSSVKVSCKASGGTFSSYAYSWVRQAPGQGLEWMGGIIPSFGTANYAQKFQGRVTITADESTSTAYMELSSLRSEDTAVYYCARGPIVATITPLDYWGQGTLVTVSS
VL: SYVLTQPPSVSVAPGKTATIACGGENIGRKTVHWYQQKPGQAPVLVIYYDSDRPSGIPERFSGSNSGNTATLTISRVEAGDEADYYCLVWDSSSDHRIFGGGTKLTVLG
notes: also called PDL1 antibody
